In all, about 320,000 compounds went through this assay and about 22,000 (6.9%) were called active. The inconclusive results got no clear call from the source; some entries with a clear call stand among them for comparison. The call rests on the fitted dose curve; in most records, active means well fitted inhibition curve with a large enough effect; inconclusive means small, poorly fitted or top-dose-only effect, or another doubt; inactive means no such curve, though single readings can be large or run the other way. Potencies of inconclusive entries are doubtful fits and often do not repeat.
assay: Primary qHTS for delayed death inhibitors of the malarial parasite plastid, 96 hour incubation; details: P. falciparum luciferase reporter growth; series mostly up to 28.7 µM; activity change, negative = inhibition: at the top concentration
Summary of the method: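 Parasite growth measured via integrated firefly luciferase reporter in P. falciparum. Infected erythrocytes at 2% hematocrit, 0.05% parasitemia final were treated 96 hours at 37 C under 5% CO2, and luminescence was read.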
On the % scale 0 is the no-effect control and ±100 the full control effect; potency means the concentration at half of the fitted maximal effect.

**Q.** With `O=C(Nc1nnc(S(=O)(=O)N2CCCCCC2)s1)c1ccccc1` as the compound, how does the Potency read?
**A.** The Potency was inconclusive: 10.4 µM [inhibitor, single point].

**Q.** With `CC1CC(C)CN(C(=S)SCc2nc(N)nc(Nc3ccccc3)n2)C1` (centres undefined) as the compound, how does the Potency read?
**A.** Its Potency is inconclusive: 18.5 µM [inhibitor, single point].

**Q.** With `COc1ccc(CCn2c(-c3cccc([N+](=O)[O-])c3)nc3nc4ccccc4nc32)cc1OC` as the compound, how does the Potency read?
**A.** Its Potency is inconclusive: 11.7 µM [inhibitor, single point].

**Q.** For `O=C(CSc1ccccc1)Nc1cccc(S(=O)(=O)N2CCCCC2)c1`, which Potency is on record?
**A.** Its Potency is inconclusive: 18.5 µM [inhibitor, single point].

**Q.** For `COc1ccc([C@@H]2[C@@H]3C(=O)N(C(C)(C)C)C(=O)[C@@H]3[C@]3(Cc4ccc(Cl)cc4)C(=O)N(c4ccc(C)cc4)C(=O)N23)cc1`, which Potency is on record?
**A.** The Potency was active: 6.57 µM.

**Q.** Which Potency does the source give for `Cc1ccc(NC(=O)NC2CCN(S(=O)(=O)c3ccc(F)cc3)CC2)cc1` here?
**A.** The Potency was inconclusive: 18.5 µM [inhibitor, single point].

**Q.** For `CCOC(=O)CS(=O)(=O)c1nc(-c2ccccc2)cc(C(F)(F)F)n1`, which “activity change, negative = inhibition” value is on record?
**A.** Its value is inactive: 38.9%.

**Q.** For `Oc1c(C(c2cccs2)N2CCN(c3ccc(F)cc3)CC2)sc2ncnn12` (centres undefined), which Potency is on record?
**A.** Its Potency is inconclusive: 18.5 µM [inhibitor, single point].

**Q.** Which Potency does the source give for `CC1CCN(C(=O)C2c3ccccc3C(=O)N3CCc4ccccc4C23)CC1` (centres undefined) here?
**A.** Its Potency is inconclusive: 18.5 µM [inhibitor, single point].

**Q.** Which Potency does the source give for `O=C(Nc1ccc(C(F)(F)F)cc1)C1CCCCN1S(=O)(=O)c1ccccc1` (centres undefined) here?
**A.** The Potency was inconclusive: 18.5 µM [inhibitor, single point].

**Q.** With `COc1ccc(OCC(=O)NCCNC(=O)c2cccnc2)cc1` as the compound, how does the “activity change, negative = inhibition” value read?
**A.** Its value is inactive: 1.08%.

**Q.** With `COc1cc(C(=O)N/C(=C\c2cn(C)c3ccccc23)C(=O)NCCCO)cc(OC)c1OC` as the compound, how does the Potency read?
**A.** Its Potency is inconclusive: 9.28 µM [inhibitor, single point].

**Q.** With `CCN(CC)c1nc(-c2ccccn2)nc(-c2ccccc2)c1C#N` as the compound, how does the Potency read?
**A.** Its Potency is active: 4.15 µM.

**Q.** For `CC(OC(=O)Cn1cnc2c1c(=O)n(C)c(=O)n2C)C(=O)N(C)c1ccccc1` (centres undefined), which “activity change, negative = inhibition” value is on record?
**A.** The value was inactive: 47.7%.

**Q.** Which Potency does the source give for `Cc1cccc(CCNC(=O)CCCOc2cc(=O)n(C)c3ccccc23)c1` here?
**A.** The Potency was inconclusive: 9.28 µM [inhibitor, single point].

**Q.** With `CCn1c(CC(=O)Nc2ccc(OC)cc2)nnc1SCC(=O)N1CCOCC1` as the compound, how does the Potency read?
**A.** Its Potency is inconclusive: 2.62 µM [inhibitor, partial curve, poor fit].

**Q.** Which Potency does the source give for `O=C(Nc1cccc(F)c1)c1cc(S(=O)(=O)N2CCC(C(=O)O)CC2)ccc1F` here?
**A.** Its Potency is inconclusive: 4.65 µM [inhibitor, partial curve, poor fit].

**Q.** For `C=CCOC(=O)C1=C[C@H](C2CC2)[C@@H](CCCO)[C@H](OCC)O1`, which Potency is on record?
**A.** The Potency was inconclusive: 18.5 µM [inhibitor, single point].

**Q.** For `COc1ccc(C(=O)N2CCN(c3ccc(NC(=O)c4cccs4)cc3)CC2)cc1`, which Potency is on record?
**A.** Its Potency is inconclusive: 10.4 µM [inhibitor, single point].

**Q.** For `CC(=O)Nc1ccc2nc(NC(=O)c3ccc([N+](=O)[O-])o3)sc2c1`, which Potency is on record?
**A.** The Potency was inconclusive: 10.4 µM [inhibitor, partial curve].

**Q.** Which Potency does the source give for `CC(C)OC(=O)CSc1nc2c(c(C3CC=CCC3)c1C#N)CCC2` (centres undefined) here?
**A.** Its Potency is inconclusive: 18.5 µM [inhibitor, single point].

**Q.** For `NC(N)=N/N=C/c1ccc2cccc(OCc3ccccc3)c2n1`, which Potency is on record?
**A.** The Potency was inconclusive: 2.94 µM [inhibitor, single point].

**Q.** With `O=C1Nc2ccccc2/C1=N\c1sc2c(c1C(=O)Nc1ccccc1)CCCC2` as the compound, how does the Potency read?
**A.** The Potency was active: 2.33 µM.

**Q.** For `COC(=O)[C@@]1(Cc2ccc(OC)cc2)[C@@H]2C(=CC(=O)[C@H]2CC(=O)C(=O)N2CCCC2)CN1C(=O)c1ccccc1`, which Potency is on record?
**A.** Its Potency is inconclusive: 18.5 µM [inhibitor, single point].

**Q.** For `Cc1ccccc1C(=O)NC1CCN(CC(=O)NCc2ccc(F)cc2)CC1`, which Potency is on record?
**A.** The Potency was inconclusive: 14.7 µM [inhibitor, single point].

**Q.** Which “activity change, negative = inhibition” value does the source give for `CC(C)NC(=O)COC(=O)c1ccccc1C(=O)c1ccccc1` here?
**A.** Its value is inactive: 11.7%.

**Q.** For `Cc1c(Cl)cccc1NC(=O)c1ccc(OCC(=O)NCc2ccccc2)cc1`, which Potency is on record?
**A.** The Potency was inconclusive: 13.1 µM [inhibitor, single point].

**Q.** For `O=C(CN(Cc1ccccc1Cl)C(=O)CNS(=O)(=O)c1ccc(F)cc1)NCC1CCCO1` (centres undefined), which Potency is on record?
**A.** The Potency was inconclusive: 6.57 µM [inhibitor, partial curve].

**Q.** Which Potency does the source give for `CCN(CC)CCCN(Cc1cc2cc3c(cc2[nH]c1=O)OCO3)C(=S)NC` here?
**A.** The Potency was inconclusive: 11.7 µM [inhibitor, partial curve, poor fit].

**Q.** With `CC1(C)CC(NC(=O)c2ccc(Cl)cc2Cl)CC(C)(C)N1` as the compound, how does the Potency read?
**A.** Its Potency is inconclusive: 18.5 µM [inhibitor, single point].

**Q.** For `Cc1csc(NC(=O)CCc2c(C)nc3cc(-c4cccc(F)c4)nn3c2C)n1`, which Potency is on record?
**A.** Its Potency is inconclusive: 10.4 µM [inhibitor, single point].

**Q.** With `CCOc1ccc(C(=O)N[C@H](C(=O)Nc2cccc(S(=O)(=O)N3CCOCC3)c2)C(C)C)cc1` as the compound, how does the Potency read?
**A.** The Potency was inconclusive: 11.7 µM [inhibitor, single point].

**Q.** With `C/C(=N\Nc1nc2ccccc2[nH]1)c1ccc(N2CCOCC2)cc1` as the compound, how does the Potency read?
**A.** Its Potency is active: 1.65 µM.

**Q.** With `O=C1N/C(=C\c2ccccc2)C(O)=C1C=NCc1ccccc1` as the compound, how does the Potency read?
**A.** The Potency was inconclusive: 7.38 µM [inhibitor, single point].

**Q.** Which Potency does the source give for `CC(C)c1ccc(NC(=O)CSc2nc(=O)n(CCCN3CCOCC3)c3c2CCC3)cc1` here?
**A.** Its Potency is inconclusive: 13.1 µM [inhibitor, single point].

**Q.** With `CCOC(=O)C1CCN(c2nnc(N3CCCC3=O)s2)CC1` as the compound, how does the Potency read?
**A.** The Potency was active: 0.828 µM.

**Q.** With `Cc1ccc(S(=O)(=O)CC(=O)N(CCCN(C)C)c2nc3ccc(C)cc3s2)cc1` as the compound, how does the Potency read?
**A.** The Potency was inconclusive: 0.0657 µM [inhibitor, full curve, poor fit].

**Q.** With `O=C1NC2(Nc3ccccc31)C(=O)Nc1ccccc12` (centres undefined) as the compound, how does the “activity change, negative = inhibition” value read?
**A.** The value was inactive: 31.4%.

**Q.** With `Cc1cccc(-n2ccc(=O)c(C(=O)Nc3ccc(S(=O)(=O)N4CCOCC4)cc3)n2)c1` as the compound, how does the Potency read?
**A.** Its Potency is active: 11.7 µM.

**Q.** With `COCCNC(=O)c1c(N)sc2c1CCCC2` as the compound, how does the Potency read?
**A.** Its Potency is inconclusive: 18.5 µM [inhibitor, single point].

**Q.** With `CC(=O)c1cccc(NC(=O)c2c(C)nn(-c3ccccc3)c2Cl)c1` as the compound, how does the Potency read?
**A.** Its Potency is inconclusive: 18.5 µM [inhibitor, single point].

**Q.** For `COC(=O)C(Cc1ccccc1)NC(=O)CCCC(=O)NCc1cccc(OC)c1` (centres undefined), which “activity change, negative = inhibition” value is on record?
**A.** Its value is inactive: -28.4%.

**Q.** For `COc1ccc(/C=N/N=C2/NC(=O)C(c3ccccc3)S2)c(OC)c1` (centres undefined), which Potency is on record?
**A.** Its Potency is inconclusive: 18.5 µM [inhibitor, single point].

**Q.** With `Cc1ccc(C(=O)CNc2ccc(F)cc2)cc1` as the compound, how does the Potency read?
**A.** Its Potency is inconclusive: 18.5 µM [inhibitor, single point].

**Q.** For `COc1ccc(C(=O)Nc2c3c(nn2C(C)(C)C)CS(=O)(=O)C3)cc1OC`, which Potency is on record?
**A.** Its Potency is inconclusive: 0.586 µM [inhibitor, full curve, poor fit].

**Q.** For `COc1ccccc1CCC(=O)N1CCN(S(=O)(=O)c2cc(C(F)(F)F)ccc2Cl)CC1`, which Potency is on record?
**A.** The Potency was active: 3.7 µM.

**Q.** With `O=C(Cn1nnc(-c2ccccc2NC(=O)c2ccccc2F)n1)NC1CCCC1` as the compound, how does the “activity change, negative = inhibition” value read?
**A.** Its value is inactive: -6.01%.

**Q.** Which Potency does the source give for `COc1ccc(S(=O)(=O)N2CCOCC2)cc1C(=O)N1CCCCC1` here?
**A.** The Potency was inconclusive: 16.5 µM [inhibitor, single point].

**Q.** With `CCOc1ccc(S(=O)(=O)NCc2ccncc2)cc1NC(=O)c1ccccc1` as the compound, how does the Potency read?
**A.** The Potency was inconclusive: 18.5 µM [inhibitor, single point].

**Q.** Which Potency does the source give for `O=C1NN(c2ccccc2)C(=O)/C1=C/c1coc2ccccc2c1=O` here?
**A.** Its Potency is inconclusive: 18.5 µM [inhibitor, single point].

**Q.** With `Cc1ccc(-n2cc(CNCC3CC(=O)N(C4CC4)C3)c(-c3cccc(C)c3)n2)cc1` (centres undefined) as the compound, how does the Potency read?
**A.** Its Potency is active: 11.7 µM.

**Q.** For `O=C(CCc1nnc(COc2ccccc2)o1)NCc1ccc(Cl)s1`, which Potency is on record?
**A.** The Potency was active: 14.7 µM.

**Q.** Which “activity change, negative = inhibition” value does the source give for `CCc1ccc(OCc2cnc(Cl)s2)cc1` here?
**A.** The value was inactive: 52.3%.

**Q.** With `O=[N+]([O-])c1ccccc1OCC(O)CNC1CCCC1` (centres undefined) as the compound, how does the Potency read?
**A.** The Potency was inconclusive: 13.1 µM [inhibitor, single point].

**Q.** Which Potency does the source give for `NC(=O)COc1ccc(/C=N/NC(=O)C2CCCN2S(=O)(=O)c2ccc(Cl)cc2)cc1` (centres undefined) here?
**A.** Its Potency is inconclusive: 18.5 µM [inhibitor, partial curve, poor fit].

**Q.** For `Cc1ccc(CCNC(=O)C2CCN(c3nn4c(=O)cc(C)nc4s3)CC2)cc1`, which Potency is on record?
**A.** The Potency was inconclusive: 13.1 µM [inhibitor, partial curve, poor fit].

**Q.** With `CC(C)[C@H](NC(=O)c1cccc(S(=O)(=O)N2CCCC2)c1)c1nc2ccccc2[nH]1` as the compound, how does the “activity change, negative = inhibition” value read?
**A.** Its value is inactive: -38.3%.

**Q.** Which Potency does the source give for `CCOC(=O)C1=CC[C@H]2c3c(c4ccc(OC)cc4n3C)C(=O)C1N2S(=O)(=O)c1ccc(C)cc1` here?
**A.** Its Potency is inconclusive: 1.65 µM [inhibitor, partial curve].

**Q.** For `COC(C[C@@H]1O[C@H]1[C@@H](O)[C@@H](C)OCc1ccccc1)OC`, which “activity change, negative = inhibition” value is on record?
**A.** Its value is inactive: 74.1%.

**Q.** Which Potency does the source give for `O=C(CN1CCCCCC1)NC(c1ccccc1)c1ccccc1` here?
**A.** Its Potency is inconclusive: 18.5 µM [inhibitor, single point].

**Q.** Which Potency does the source give for `CC1(OC(=O)C2CCCC2)C(=O)C=C2C=C(c3ccsc3)N(c3ccccc3)C=C2C1=O` (centres undefined) here?
**A.** Its Potency is inconclusive: 18.5 µM [inhibitor, single point].

**Q.** Which Potency does the source give for `COc1ccc(Nc2ncc(C(=O)N3CCN(c4ccccc4OC)CC3)c3ccccc23)cc1` here?
**A.** The Potency was inconclusive: 9.28 µM [inhibitor, single point].

**Q.** With `Cc1nn(Cc2c(F)c(F)c(F)c(F)c2F)c(C)c1NC(=O)c1ccc(COc2ccc(Cl)cc2Cl)o1` as the compound, how does the Potency read?
**A.** The Potency was inconclusive: 4.15 µM [inhibitor, partial curve, poor fit].

**Q.** With `CC(=O)ON1C(C)(C)Cc2noc(N)c2C1(C)C` as the compound, how does the Potency read?
**A.** Its Potency is inconclusive: 14.7 µM [inhibitor, partial curve].

Reference: PubChem BioAssay AID504834 (National Center for Advancing Translational Sciences (NCATS), 2011)
